# Assay results reported in PubChem BioAssay AID2685 (National Center for Advancing Translational Sciences (NCATS), 2010).
# The list shows a part of the results. Further columns of the screen follow, without active or inactive calls. Most of these compounds were active or inconclusive in the main read-out, so they are no random draw. Potencies come from curve fits of mixed quality, noted in brackets.
# Assay: qHTS Assay for Lipid Storage Modulators in Drosophila S3 Cells;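 as to cell number change: cells counted by Cell Tracker Red CMTPX staining in the red channel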
# Settings: BODIPY lipid droplet fluorescence, 18-24 h; for cell number change: measured here: cell count max response, cells fed with added oleic acid
# Method in brief: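 Drosophila S3 cells loaded with oleic acid (400 uM, as added) and compounds at several concentrations; lipid droplets imaged by 488-nm laser-scanning cytometry, 500–530 nm intensity and object ratio to cell channel. Percent activity normalized to 20 uM Triacsin C.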
# [1] = measured here: lipid fluorescence (Fed channel) AC50, cells fed with added oleic acid
# [2] = measured here: cell number channel AC50, cells fed with added oleic acid
SMILES,cell number change,AC50 [1],AC50 [2]
Cc1cc(=O)oc2ccc(OCc3ccccc3)cc12,2.16%,"0.00517 µM [rising, full curve, poor fit]",
COCCNC(=O)C(=O)Nc1ccc2c(c1)N(S(=O)(=O)c1cccs1)CCC2,-31.3%,,"1.84 µM [falling, partial curve]"
COc1ccccc1NC(=O)N1CCCC1C(=O)Nc1ccc2c(c1)OCCO2 (configuration not stated),0.0983%,,
O=C(CC(SCCO)c1ccc([N+](=O)[O-])cc1)c1ccco1 (configuration not stated),-5.97%,,
COc1ccc(CNC(=O)[C@@H]2CCCN2C(=O)[C@@H]2Cc3ccccc3CN2C(=O)OC(C)(C)C)cc1,-0.943%,"29.1 µM [falling, single point]",
COc1ccc(C(=S)N2CCN(C)CC2)cc1,-40.9%,,"29.1 µM [falling, single point]"
N/C(=N\OC(=O)N1CCOCC1)c1ccccc1,-1.34%,"0.731 µM [falling, full curve, poor fit]",
COCCCN1C(=O)c2ccc(C(=O)Nc3ccccc3OC)cc2C1=O,17.1%,"29.1 µM [rising, single point]",
O=C1CCCN1CCCNCC(=O)N1c2ccccc2Sc2ccccc21,,,"0.13 µM [rising, full curve, poor fit]"
O=C(CSc1n[nH]c(-c2ccco2)n1)N1c2ccccc2Sc2ccccc21,,"18.4 µM [falling, partial curve]",
COc1ccccc1CNC(=O)COC(=O)c1ccc(C)c(S(=O)(=O)N2CCOCC2)c1,0.453%,"0.82 µM [falling, full curve, poor fit]","0.82 µM [falling, full curve, poor fit]"
OC(CNCc1ccccc1Cl)C(F)(F)F (configuration not stated),-18.8%,"15.8 µM [falling, single point]",
COc1ccc2[nH]c(C)c(CCNC(=S)Nc3cccc(C)c3C)c2c1,4.72%,"1.46 µM [rising, full curve, poor fit]",
NC1=C(Br)C(=O)c2ccccc2C1=O,-28.7%,"13 µM [falling, partial curve, poor fit]",
COc1cc(C)c(Cl)cc1S(=O)(=O)n1cnc2ccccc21,,,"0.184 µM [rising, full curve, poor fit]"
Cc1ccc(N2CCN(C(=O)Nc3cccc([N+](=O)[O-])c3)CC2C)cc1 (configuration not stated),-30.4%,,"12.6 µM [falling, single point]"
Cc1nc2ccccc2n1CCc1nc2c3ccccc3nc(SCC(=O)NCc3ccco3)n2n1,-69.7%,"18.4 µM [falling, partial curve]","18.4 µM [falling, partial curve]"
CCc1cc2c(C)cc(=O)oc2cc1OC(=O)C1CCCN1C(=O)OC(C)(C)C (configuration not stated),-2.12%,,"0.651 µM [falling, single point]"
CCCCC(Nc1ncnc2ccccc12)C(=O)O (configuration not stated),9.51%,,
COc1ccc(C(Nc2cccc([N+](=O)[O-])c2)P(=O)(OC(C)C)OC(C)C)cc1 (configuration not stated),6.08%,"29.1 µM [rising, single point]",

# Retrieved one by one from the entries so far, two records:
SMILES,cell number change,AC50 [1],AC50 [2]
Cc1nc2ccccc2n1CCc1nc2c3ccccc3nc(SCC(=O)NCc3ccco3)n2n1,-69.7%,"18.4 µM [falling, partial curve]","18.4 µM [falling, partial curve]"
COCCNC(=O)C(=O)Nc1ccc2c(c1)N(S(=O)(=O)c1cccs1)CCC2,-31.3%,,"1.84 µM [falling, partial curve]"

# Carrying on.

SMILES,cell number change,AC50 [1],AC50 [2]
O=C(CN(Cc1ccccc1Cl)C(=O)c1csnn1)NCc1ccc(F)cc1,-12.4%,,
CC(=O)c1cccc(NC(=O)C2CCCC2)c1,0.881%,"0.0058 µM [falling, full curve, poor fit]",
CCOc1ccc2ccccc2c1/C=N/NC(=O)c1cc(C)[nH]n1,,"3.55 µM [rising, single point]",
CC(C)(C)Cc1nnc(NC(=O)c2ccc([N+](=O)[O-])cc2)s1,20.6%,"0.164 µM [falling, full curve]",
CCCCC1(CO)C(=O)N(c2ccccc2)N(c2ccccc2)C1=O,4.48%,"6.51 µM [rising, single point]",
COCCn1c(SCC(=O)NCc2ccc3c(c2)OCO3)nnc1C(C)C,5.83%,"0.731 µM [rising, partial curve]",
COc1cc(NC(=O)c2ccc(COCC(F)(F)F)o2)cc(OC)c1OC,,,"4.11 µM [rising, single point]"
Cn1cnnc1SCc1ccc(F)c2ccccc12,33.4%,,"2.59 µM [rising, partial curve]"
Clc1cccc(-c2ccc(CNCc3ccccn3)o2)c1,-6.08%,"29.1 µM [falling, single point]",
CC(=O)N=c1sc2cc(C)ccc2n1C,24.2%,,
CN(C)S(=O)(=O)c1cccc(NS(=O)(=O)c2ccc(Cl)s2)c1,-62.7%,"11.6 µM [falling, single point]","18.4 µM [falling, single point]"
CC1CC(C)CN(Cc2nc(N)nc(Nc3ccccc3)n2)C1 (configuration not stated),44.4%,"29.1 µM [rising, single point]","6.51 µM [rising, partial curve]"
COc1ccc(NC(=O)C2CCC(=O)N2S(=O)(=O)c2ccc(C)cc2)cc1Cl (configuration not stated),8.97%,"0.651 µM [rising, partial curve, poor fit]",
O=C(N/N=C/c1coc2ccc(Cl)cc2c1=O)c1cc(O)cc(O)c1,,"0.00461 µM [falling, full curve, poor fit]",
Cc1nc2ccc(S(=O)(=O)NC(C(=O)NC3CCCC3)C(C)C)cc2s1 (configuration not stated),-10.2%,"0.058 µM [falling, full curve, poor fit]",
Cc1ccc2c(c1)N(CC(=O)NC1CCCC(C)C1C)C(=O)c1cccnc1O2 (configuration not stated),-7.49%,"20.6 µM [falling, single point]",
COC(=O)c1ccccc1NC(=O)c1cccc(NC(=O)CSCc2ccccc2)c1C,50.9%,"6.51 µM [rising, single point]","0.731 µM [rising, full curve]"
CCn1c(O)c(N=NC(=O)c2cccnc2)c2cc(Br)ccc21,20%,"0.082 µM [rising, full curve, poor fit]",
COc1ccc(CNC(=O)C2CC(c3ccccc3C(F)(F)F)=NO2)cc1 (configuration not stated),28.5%,"29.1 µM [rising, partial curve, poor fit]",
